Assay results: patent US5270339A, “Phenoxybenzene derivative” (Kanagafuchi Kagaku Kogyo Kabushiki Kaisha, priority 1991, dated 1993)
Some of these results come from one statement about several compounds together.

System: ddY mice
Test: Acute toxicity test, oral
Format: in vivo, ddY male mice
Details: for Dead mice: dose of 500 mg/kg, 2 weeks
Protocol: With respect to the compounds 1 to 86 shown in Table 1 as test compounds, the acute toxicity was examined using ddY mice according to the following method.
In each group, six male ddY mice weighing 27 to 30 g were employed. The compounds 1 to 86 suspended in an aqueous solution of 0.5% sodium carboxymethylcellulose were administered orally in a volume of 0.1 ml/10 g body weight. […] The LD50 (mg/kg) values were estimated from the ratio of the number of dead mice to the number of mice used.

| Structure (SMILES) | Dead mice | LD50 (ddY mice, 2 weeks observation, 20160 min) |
| --- | --- | --- |
| O=C1NCCC1=Cc1cccc(Oc2ccccc2)c1 [Compound 1] | no dead mice |  |
| O=C1NCCC1=Cc1ccc(Oc2ccccc2)cc1 [Compound 2] | no dead mice |  |
| O=C1NCCC1=Cc1ccccc1Oc1ccccc1 [Compound 3] | no dead mice |  |
| Cc1ccc(Oc2cccc(C=C3CCNC3=O)c2)cc1 [Compound 4] | no dead mice |  |
| COc1ccc(Oc2cccc(C=C3CCNC3=O)c2)cc1 [Compound 5] | no dead mice |  |
| O=C1NCCC1=Cc1cccc(Oc2ccc(Cl)cc2)c1 [Compound 6] | no dead mice |  |
| O=C1NCCC1=Cc1ccc(Oc2ccccc2)c([N+](=O)[O-])c1 [Compound 7] | no dead mice |  |
| Nc1cc(C=C2CCNC2=O)ccc1Oc1ccccc1 [Compound 8] | no dead mice |  |
| CN1CCC(=Cc2cccc(Oc3ccccc3)c2)C1=O [Compound 9] | no dead mice |  |
| CCN1CCC(=Cc2cccc(Oc3ccccc3)c2)C1=O [Compound 10] | no dead mice |  |
| CCCN1CCC(=Cc2cccc(Oc3ccccc3)c2)C1=O [Compound 11] | no dead mice |  |
| CCCCN1CCC(=Cc2cccc(Oc3ccccc3)c2)C1=O [Compound 12] | no dead mice |  |
| CCCCCCN1CCC(=Cc2cccc(Oc3ccccc3)c2)C1=O [Compound 13] | no dead mice |  |
| CCN1CCC(=Cc2ccc(Oc3ccccc3)cc2)C1=O [Compound 14] | no dead mice |  |
| CCN1CCC(=Cc2cccc(Oc3ccc(C)cc3)c2)C1=O [Compound 15] | no dead mice |  |
| CC(C)N1CCC(=Cc2cccc(Oc3ccccc3)c2)C1=O [Compound 16] | no dead mice |  |
| O=C1C(=Cc2cccc(Oc3ccccc3)c2)CCN1C1CC1 [Compound 17] | no dead mice |  |
| CCN1CCC(=Cc2ccc(Oc3ccccc3)cc2)C1 [Compound 18] | no dead mice |  |
| CCN1CCC(=Cc2cccc(Oc3ccc(C)cc3)c2)C1 [Compound 19] | no dead mice |  |
| C=CCN1CCC(=Cc2cccc(Oc3ccccc3)c2)C1=O [Compound 20] | no dead mice |  |
| C=CN1CCC(=Cc2cccc(Oc3ccccc3)c2)C1=O [Compound 21] | no dead mice |  |

| Structure (SMILES) | Dead mice | LD50 (ddY mice, 2 weeks observation, 20160 min) |
| --- | --- | --- |
| CON1CCC(=Cc2cccc(Oc3ccccc3)c2)C1=O [Compound 22] | no dead mice |  |
| COCCN1CCC(=Cc2cccc(Oc3ccccc3)c2)C1=O [Compound 23] | no dead mice |  |
| O=C1C(=Cc2cccc(Oc3ccccc3)c2)CCN1CCOC1CCCCO1 (stereo not shown) [Compound 24] | no dead mice |  |
| O=C1C(=Cc2cccc(Oc3ccccc3)c2)CCN1CCO [Compound 25] | no dead mice |  |
| O=C1C(=Cc2cccc(Oc3ccccc3)c2)CCN1CCF [Compound 26] | no dead mice |  |
| O=C1C(=Cc2cccc(Oc3ccccc3)c2)CCN1CCCl [Compound 27] | no dead mice |  |
| CCOC(=O)CN1CCC(=Cc2cccc(Oc3ccccc3)c2)C1=O [Compound 28] | no dead mice |  |
| O=C(O)CN1CCC(=Cc2cccc(Oc3ccccc3)c2)C1=O [Compound 29] | no dead mice |  |
| NC(=O)N1CCC(=Cc2cccc(Oc3ccccc3)c2)C1=O [Compound 30] | no dead mice |  |
| COc1ccc(NC(=O)N2CCC(=Cc3cccc(Oc4ccccc4)c3)C2=O)cc1 [Compound 31] | no dead mice |  |
| NC(=O)CN1CCC(=Cc2cccc(Oc3ccccc3)c2)C1=O [Compound 32] | no dead mice |  |
| NC(=O)CCN1CCC(=Cc2cccc(Oc3ccccc3)c2)C1=O [Compound 33] | no dead mice |  |
| CNC(=O)CN1CCC(=Cc2cccc(Oc3ccccc3)c2)C1=O [Compound 34] | no dead mice |  |
| CN(C)C(=O)CN1CCC(=Cc2cccc(Oc3ccccc3)c2)C1=O [Compound 35] | no dead mice |  |
| CN(C)CCNC(=O)CN1CCC(=Cc2cccc(Oc3ccccc3)c2)C1=O [Compound 36] | no dead mice |  |
| N#CCN1CCC(=Cc2cccc(Oc3ccccc3)c2)C1=O [Compound 37] | no dead mice |  |
| CN(C)N1CCC(=Cc2cccc(Oc3ccccc3)c2)C1=O [Compound 38] | no dead mice |  |
| NCCN1CCC(=Cc2cccc(Oc3ccccc3)c2)C1=O [Compound 39] | no dead mice |  |
| CN(C)CCN1CCC(=Cc2cccc(Oc3ccccc3)c2)C1=O [Compound 40] | no dead mice |  |
| CC(=O)N1CCC(=Cc2cccc(Oc3ccccc3)c2)C1=O [Compound 41] | no dead mice |  |
| O=C1C(=Cc2cccc(Oc3ccccc3)c2)CCN1C(=O)c1ccccc1 [Compound 42] | no dead mice |  |

| Structure (SMILES) | Dead mice | LD50 (ddY mice, 2 weeks observation, 20160 min) |
| --- | --- | --- |
| COc1ccc(C(=O)N2CCC(=Cc3cccc(Oc4ccccc4)c3)C2=O)cc1 [Compound 43] | no dead mice |  |
| O=C(C=Cc1ccccc1)N1CCC(=Cc2cccc(Oc3ccccc3)c2)C1=O [Compound 44] | no dead mice |  |
| CC(=O)CN1CCC(=Cc2cccc(Oc3ccccc3)c2)C1=O [Compound 45] | no dead mice |  |
| O=C1C(=Cc2cccc(Oc3ccccc3)c2)CCN1c1ccccc1 [Compound 46] | no dead mice |  |
| O=C1C(=Cc2cccc(Oc3ccccc3)c2)CCN1c1ccc(F)cc1F [Compound 47] | no dead mice |  |
| O=C1C(=Cc2cccc(Oc3ccccc3)c2)CCN1Cc1ccccc1 [Compound 48] | no dead mice |  |
| COc1ccc(CN2CCC(=Cc3cccc(Oc4ccccc4)c3)C2=O)cc1 [Compound 49] | no dead mice |  |
| O=C1C(=Cc2cccc(Oc3ccccc3)c2)CCN1Cc1ccc(Cl)cc1 [Compound 50] | no dead mice |  |
| O=C1C(=Cc2cccc(Oc3ccccc3)c2)CCN1CCc1ccccc1 [Compound 51] | no dead mice |  |
| CC1CC(=Cc2cccc(Oc3ccccc3)c2)C(=O)N1 (stereo not shown) [Compound 52] | no dead mice |  |
| CCN1C(=O)C(=Cc2cccc(Oc3ccccc3)c2)CC1C (stereo not shown) [Compound 53] | no dead mice |  |
| CCN1C(=O)C(=Cc2cccc(Oc3ccccc3)c2)CC1O (stereo not shown) [Compound 54] | no dead mice |  |
| COC1CC(=Cc2cccc(Oc3ccccc3)c2)C(=O)N1 (stereo not shown) [Compound 55] | no dead mice |  |
| CCOC1CC(=Cc2cccc(Oc3ccccc3)c2)C(=O)N1 (stereo not shown) [Compound 56] | no dead mice |  |
| CCOC1CC(=Cc2cccc(Oc3ccccc3)c2)C(=O)N1CC (stereo not shown) [Compound 57] | no dead mice |  |
| O=C1NC(CO)CC1=Cc1cccc(Oc2ccccc2)c1 (stereo not shown) [Compound 58] | no dead mice |  |
| O=C1NC(N2CCCC2)CC1=Cc1cccc(Oc2ccccc2)c1 (stereo not shown) [Compound 59] | no dead mice |  |
| CC1CNC(=O)C1=Cc1cccc(Oc2ccccc2)c1 (stereo not shown) [Compound 60] | no dead mice |  |
| CCN1CC(C)C(=Cc2cccc(Oc3ccccc3)c2)C1=O (stereo not shown) [Compound 61] | no dead mice |  |
| O=C1NCC(c2ccccc2)C1=Cc1cccc(Oc2ccccc2)c1 (stereo not shown) [Compound 62] | no dead mice |  |
| CN1CCC(=Cc2cccc(Oc3ccccc3)c2)C1 [Compound 65] | no dead mice |  |

| Structure (SMILES) | Dead mice | LD50 (ddY mice, 2 weeks observation, 20160 min) |
| --- | --- | --- |
| CCN1CCC(=Cc2cccc(Oc3ccccc3)c2)C1 [Compound 66] | no dead mice |  |
| CCN1CCC(=Cc2cccc(Oc3ccccc3)c2)C1 [Compound 67] | no dead mice | not less than 500 mg/kg |
| CCCCN1CCC(=Cc2cccc(Oc3ccccc3)c2)C1 [Compound 68] | no dead mice |  |
| C=CCN1CCC(=Cc2cccc(Oc3ccccc3)c2)C1 [Compound 69] | no dead mice |  |
| C(=C1CCN(CCOC2CCCCO2)C1)c1cccc(Oc2ccccc2)c1 (stereo not shown) [Compound 70] | no dead mice |  |
| OCCN1CCC(=Cc2cccc(Oc3ccccc3)c2)C1 [Compound 71] | no dead mice |  |
| CCOC(=O)N1CCC(=Cc2cccc(Oc3ccccc3)c2)C1 [Compound 72] | no dead mice |  |
| NC(=O)N1CCC(=Cc2cccc(Oc3ccccc3)c2)C1 [Compound 73] | no dead mice |  |
| CC(=O)N1CCC(=Cc2cccc(Oc3ccccc3)c2)C1 [Compound 74] | no dead mice |  |
| CCN1CC(=Cc2cccc(Oc3ccccc3)c2)CC1C (stereo not shown) [Compound 75] | no dead mice |  |
| CCN1CC(=Cc2cccc(Oc3ccccc3)c2)C(C)C1 (stereo not shown) [Compound 76] | no dead mice |  |
| CCC1NCCC1=Cc1cccc(Oc2ccccc2)c1 (stereo not shown) [Compound 77] | no dead mice |  |
| CCC1C(=Cc2cccc(Oc3ccccc3)c2)CCN1CC (stereo not shown) [Compound 78] | no dead mice |  |
| CCCCC1C(=Cc2cccc(Oc3ccccc3)c2)CCN1CC (stereo not shown) [Compound 79] | no dead mice |  |
| CCC1C(=Cc2cccc(Oc3ccccc3)c2)CCN1C(C)=O (stereo not shown) [Compound 80] | no dead mice |  |
| O=C1NCCC1Cc1cccc(Oc2ccccc2)c1 (stereo not shown) [Compound 81] | no dead mice |  |
| CCN1CCC(Cc2cccc(Oc3ccccc3)c2)C1=O (stereo not shown) [Compound 82] | no dead mice |  |
| CCN1CCC(Cc2cccc(Oc3ccccc3)c2)C1 (stereo not shown) [Compound 83] | no dead mice |  |
| CC(C)N1CCC(=Cc2cccc(Oc3ccccc3)c2)C1 [Compound 84] | no dead mice |  |
| C(=C1CCN(C2CC2)C1)c1cccc(Oc2ccccc2)c1 [Compound 85] | no dead mice |  |
| S=C1NCCC1=Cc1cccc(Oc2ccccc2)c1 [Compound 86] | no dead mice |  |
